At least one compound was matched to its structure with a doubt left. Residues, ends and D or L forms follow the SMILES beside them.
Tested on: MMP3 expression in the chondrosarcoma cell line SW1353
Test: MMP-3 release from SW cells (MMP3 ELISA of cell culture supernatant)
Format: cell-based
Description: For the analysis of the disease-modifying action of HOE140 in a cell culture model relevant to cartilage, the MMP3 expression was analyzed in the chondrosarcoma cell line SW1353 (ATCC: HTB 94). For the experiments, SW1353 cells were cultured under standard conditions (37° C., 5% CO2) in DMEM-Glutamax with 10% of fetal calf serum (FCS) in plastic culture bottles. After detrypsinization of the cells, 50,000 cells were inoculated per well of a 96-well flat-bottom plate in medium without FCS and preincubated with the compound HOE140 in an incubator. After one hour, the cells were stimulated by addition of human IL1-β (0.1 ng/mL, Roche) in a total volume of 300 μL. After incubation for 24 hours under standard conditions, the cell culture supernatant was taken off, centrifuged for 5 minutes and frozen at −20° C. until further analysis. The MMP3 expression in the cell culture supernatants was then analyzed by means of a commercial MMP3 ELISA test system (Amersham) according to the instructions of the manufacturer. In parallel to this, a WST cytotoxicity test was carried out with the remaining cells. For this the commercial test system of Roche was used and the measurement was carried out according to the instructions of the >manufacturer's protocol. […] Bradykinin increases the MMP3 release by more than 30%.

Compound: NC(N)=NCCC[C@H](NC(=O)[C@H](Cc1ccccc1)NC(=O)[C@@H]1CCCN1C(=O)[C@H](CO)NC(=O)[C@H](Cc1ccccc1)NC(=O)CNC(=O)[C@@H]1CCCN1C(=O)[C@@H]1CCCN1C(=O)[C@@H](N)CCCN=C(N)N)C(=O)O [bradykinin] (H-RPPGFSPFR-OH)
- increase of MMP3 release (SW1353 cells stimulated with IL1, bradykinin added): more than 30%
- MMP-3 release MW (OD 450 nm) (SW cells, IL1α (0.05 ng/mL) + bradykinin (0.1 μM), no HOE140): 433 OD 450 nm
- Relative values based on starting value (SW cells, IL1α (0.05 ng/mL) + bradykinin (0.1 μM), no HOE140, IL1α alone = 100): 132.0

Reference: patent US20040248809A1, “Use of antagonists of the bradykinin B2 receptor for the treatment of osteoarthrosis” (Aventis Pharma Deutschland GmbH, priority 2003, published 2004)
